PubChem BioAssay AID686943 | Drosophila RNAi Screening Center, 2013
The deposit covers about 23,000 reagents; below is a random part of those with a known target gene and a result. 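Extra replicates exist only for a retested subset of genes; insulin dose and duration not given; both raised and lowered dpERK matter.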 The numbers tell different reagents against one gene apart. Not given: the amount of reagent, the time to read-out.

- Assay: 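Knockdowns that increase or decrease active ERK after insulin receptor stimulation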 (primary screen)
- Cell system: Drosophila S2R+ haemocyte-like cells expressing YFP-tagged ERK (Rolled)
- Reagents: long dsRNA against Drosophila genes
- Treatment: insulin stimulation versus unstimulated cells; dose and duration not given
- Measurement: 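Per-plate z-scores of phospho-ERK immunostaining normalised to YFP-tagged ERK, measured with and without insulin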
- Reading the numbers: replicate 1, z-score of dpERK with insulin and replicate 2, z-score of dpERK with insulin: higher = more active ERK per ERK-YFP after insulin; replicate 1, z-score of dpERK under basal conditions: higher = more basal active ERK per ERK-YFP; replicate 1, z-score of ERK-YFP with insulin: higher = more YFP-tagged ERK signal

target gene,reagent no.,"replicate 1, z-score of dpERK with insulin","replicate 2, z-score of dpERK with insulin","replicate 1, z-score of dpERK under basal conditions","replicate 1, z-score of ERK-YFP with insulin"
Ance (GeneID 34805),1,-0.84,-0.1,-0.53,0.26
CG14810 (GeneID 31131),1,1.24,3.61,-0.55,-1.18
CG14810 (GeneID 31131),2,0.86,0.37,-0.11,-0.23
cn (GeneID 35724),1,-0.75,-0.63,-0.11,-0.72
CG42729 (GeneID 3885667),1,-0.44,-0.14,-0.47,1.41
CG30323 (GeneID 246539),1,0.53,0.07,-0.03,-0.06
KdelR (GeneID 34427),1,-0.12,0.35,0.22,-0.42
Ten-m (GeneID 40464),1,-0.1,-0.76,-0.09,1.06
Ten-m (GeneID 40464),2,0.01,-0.2,0.11,0.62
Vha16-4 (GeneID 36900),1,0.4,0.03,0.73,-0.05
l(3)72Dp (GeneID 317887),1,0.04,0.36,-0.68,0.48
Or71a (GeneID 39641),1,0.06,-0.14,0.84,-0.69
mRpS5 (GeneID 3355089),1,-0.37,0.68,0.52,-0.79
CG13599 (GeneID 42829),1,-0.1,0,-0.38,-0.12
CG7881 (GeneID 35521),1,-0.85,0.5,-0.05,0.79
wbl (GeneID 37206),1,-1.48,-0.8,-0.72,0.23
CG6380 (GeneID 35040),1,-0.58,-0.05,-0.31,0.68
CG15482 (GeneID 34717),1,-1.27,0,-0.07,0.32
SPR (GeneID 31463),1,1.24,0.64,1.2,-0.32
SPR (GeneID 31463),2,-1.31,0.48,0.61,0.58
SPR (GeneID 31463),3,0.05,0.84,1.18,0.24
SPR (GeneID 31463),4,0.11,0.07,0.53,-1.05
CG14245 (GeneID 3772449),1,0.32,0,0.48,-0.46

Targets listed so far whose target name begins with T or t:
target gene,reagent no.,"replicate 1, z-score of dpERK with insulin","replicate 2, z-score of dpERK with insulin","replicate 1, z-score of dpERK under basal conditions","replicate 1, z-score of ERK-YFP with insulin"
Ten-m (GeneID 40464),1,-0.1,-0.76,-0.09,1.06
Ten-m (GeneID 40464),2,0.01,-0.2,0.11,0.62
